According to publication doi:10.1101/2023.08.01.551545:
No constants are given. Whether binding was seen depends on the method and setting. In cells and extracts the contact can be indirect. Some results given as binding are weak or reduced against the parent protein; the word gives no strength. Tags and fused reporters may be left off the sequences shown.

T1: SIMR-1::mCherry::2xHA (C. elegans) (UniProt O01477)
T1 sequence: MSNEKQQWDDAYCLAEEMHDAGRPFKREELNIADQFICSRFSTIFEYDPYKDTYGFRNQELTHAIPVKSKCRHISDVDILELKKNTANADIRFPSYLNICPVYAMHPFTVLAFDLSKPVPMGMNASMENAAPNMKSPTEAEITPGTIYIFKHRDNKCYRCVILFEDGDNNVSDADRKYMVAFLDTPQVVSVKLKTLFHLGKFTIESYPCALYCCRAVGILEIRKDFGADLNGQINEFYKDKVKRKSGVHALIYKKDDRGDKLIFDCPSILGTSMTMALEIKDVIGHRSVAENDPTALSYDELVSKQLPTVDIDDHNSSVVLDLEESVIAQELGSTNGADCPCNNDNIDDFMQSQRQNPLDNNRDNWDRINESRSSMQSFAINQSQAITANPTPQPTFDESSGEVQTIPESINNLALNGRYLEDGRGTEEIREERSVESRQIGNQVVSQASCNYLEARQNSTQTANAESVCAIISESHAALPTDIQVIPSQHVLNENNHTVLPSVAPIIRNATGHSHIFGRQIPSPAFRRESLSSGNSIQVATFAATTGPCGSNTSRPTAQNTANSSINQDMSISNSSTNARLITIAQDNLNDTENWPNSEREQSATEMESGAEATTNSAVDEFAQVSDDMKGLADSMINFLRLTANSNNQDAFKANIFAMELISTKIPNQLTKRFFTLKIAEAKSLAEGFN

T2: GFP::3xFLAG::HRDE-1 (C. elegans) (UniProt Q09249)
T2 sequence: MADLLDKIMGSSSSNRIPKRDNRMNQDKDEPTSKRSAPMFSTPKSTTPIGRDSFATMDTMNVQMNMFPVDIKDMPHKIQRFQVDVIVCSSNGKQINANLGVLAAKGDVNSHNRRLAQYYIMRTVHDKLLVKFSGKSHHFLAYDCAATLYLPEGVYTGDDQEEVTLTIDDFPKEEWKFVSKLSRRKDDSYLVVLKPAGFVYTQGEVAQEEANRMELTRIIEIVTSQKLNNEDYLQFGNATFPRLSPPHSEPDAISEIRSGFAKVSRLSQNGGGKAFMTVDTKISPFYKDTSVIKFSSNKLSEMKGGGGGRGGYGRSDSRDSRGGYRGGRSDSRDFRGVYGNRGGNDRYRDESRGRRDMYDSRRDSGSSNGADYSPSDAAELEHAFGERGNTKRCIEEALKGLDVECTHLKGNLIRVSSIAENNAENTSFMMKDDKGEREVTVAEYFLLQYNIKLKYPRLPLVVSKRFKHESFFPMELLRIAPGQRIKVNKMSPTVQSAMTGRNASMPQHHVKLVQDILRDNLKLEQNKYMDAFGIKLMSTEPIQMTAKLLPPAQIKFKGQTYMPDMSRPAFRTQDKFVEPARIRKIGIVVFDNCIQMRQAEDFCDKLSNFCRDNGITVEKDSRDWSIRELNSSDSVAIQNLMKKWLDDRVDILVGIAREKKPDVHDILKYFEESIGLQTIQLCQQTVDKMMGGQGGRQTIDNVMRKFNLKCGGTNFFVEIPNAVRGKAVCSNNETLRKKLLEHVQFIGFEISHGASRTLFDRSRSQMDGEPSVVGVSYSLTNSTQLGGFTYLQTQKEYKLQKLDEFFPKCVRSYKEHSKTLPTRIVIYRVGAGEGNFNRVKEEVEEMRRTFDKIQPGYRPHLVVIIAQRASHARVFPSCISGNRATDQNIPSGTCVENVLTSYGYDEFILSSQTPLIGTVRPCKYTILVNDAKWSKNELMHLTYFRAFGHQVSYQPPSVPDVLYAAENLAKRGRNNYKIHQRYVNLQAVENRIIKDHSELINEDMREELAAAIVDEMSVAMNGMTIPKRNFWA

T3: HRDE-2::2xTy1::GFP (C. elegans) (UniProt Q22058)
T3 sequence: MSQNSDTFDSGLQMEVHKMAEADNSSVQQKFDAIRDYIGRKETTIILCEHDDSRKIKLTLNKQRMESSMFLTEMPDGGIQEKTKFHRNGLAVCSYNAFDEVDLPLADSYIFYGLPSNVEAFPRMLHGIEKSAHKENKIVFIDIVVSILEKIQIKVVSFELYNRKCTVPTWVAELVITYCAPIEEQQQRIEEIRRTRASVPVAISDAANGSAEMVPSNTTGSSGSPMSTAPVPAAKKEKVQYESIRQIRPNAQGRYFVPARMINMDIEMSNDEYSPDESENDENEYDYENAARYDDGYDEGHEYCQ


Experiments:
Test in all cases: co-IP
[1] = biological target: T1, SIMR-1::mCherry::2xHA (C. elegans)
[2] = biological target: T2, GFP::3xFLAG::HRDE-1 (C. elegans)
[3] = biological target: T3, HRDE-2::2xTy1::GFP (C. elegans)

Row | Binder | binding [1] | binding [2] | binding [3]
1 | HRDE-2::2xTy1::GFP (protein, UniProt Q22058 1-305) MSQNSDTFDSGLQMEVHKMAEADNSSVQQKFDAIRDYIGRKETTIILCEHDDSRKIKLTLNKQRMESSMFLTEMPDGGIQEKTKFHRNGLAVCSYNAFDEVDLPLADSYIFYGLPSNVEAFPRMLHGIEKSAHKENKIVFIDIVVSILEKIQIKVVSFELYNRKCTVPTWVAELVITYCAPIEEQQQRIEEIRRTRASVPVAISDAANGSAEMVPSNTTGSSGSPMSTAPVPAAKKEKVQYESIRQIRPNAQGRYFVPARMINMDIEMSNDEYSPDESENDENEYDYENAARYDDGYDEGHEYCQ | no binding | binds | –
2 | SIMR-1::mCherry::2xHA (protein, UniProt O01477 1-691) MSNEKQQWDDAYCLAEEMHDAGRPFKREELNIADQFICSRFSTIFEYDPYKDTYGFRNQELTHAIPVKSKCRHISDVDILELKKNTANADIRFPSYLNICPVYAMHPFTVLAFDLSKPVPMGMNASMENAAPNMKSPTEAEITPGTIYIFKHRDNKCYRCVILFEDGDNNVSDADRKYMVAFLDTPQVVSVKLKTLFHLGKFTIESYPCALYCCRAVGILEIRKDFGADLNGQINEFYKDKVKRKSGVHALIYKKDDRGDKLIFDCPSILGTSMTMALEIKDVIGHRSVAENDPTALSYDELVSKQLPTVDIDDHNSSVVLDLEESVIAQELGSTNGADCPCNNDNIDDFMQSQRQNPLDNNRDNWDRINESRSSMQSFAINQSQAITANPTPQPTFDESSGEVQTIPESINNLALNGRYLEDGRGTEEIREERSVESRQIGNQVVSQASCNYLEARQNSTQTANAESVCAIISESHAALPTDIQVIPSQHVLNENNHTVLPSVAPIIRNATGHSHIFGRQIPSPAFRRESLSSGNSIQVATFAATTGPCGSNTSRPTAQNTANSSINQDMSISNSSTNARLITIAQDNLNDTENWPNSEREQSATEMESGAEATTNSAVDEFAQVSDDMKGLADSMINFLRLTANSNNQDAFKANIFAMELISTKIPNQLTKRFFTLKIAEAKSLAEGFN | – | – | no binding
